According to the supplement of paper PMC10849652:
This is one part of the list.

By UniProt entry, the sequences of proteins in these tests, tags left out. Where a name states a change or a piece, a line headed by the entry shows the natural chain unless it says otherwise.
UniProt Q7Z3C6: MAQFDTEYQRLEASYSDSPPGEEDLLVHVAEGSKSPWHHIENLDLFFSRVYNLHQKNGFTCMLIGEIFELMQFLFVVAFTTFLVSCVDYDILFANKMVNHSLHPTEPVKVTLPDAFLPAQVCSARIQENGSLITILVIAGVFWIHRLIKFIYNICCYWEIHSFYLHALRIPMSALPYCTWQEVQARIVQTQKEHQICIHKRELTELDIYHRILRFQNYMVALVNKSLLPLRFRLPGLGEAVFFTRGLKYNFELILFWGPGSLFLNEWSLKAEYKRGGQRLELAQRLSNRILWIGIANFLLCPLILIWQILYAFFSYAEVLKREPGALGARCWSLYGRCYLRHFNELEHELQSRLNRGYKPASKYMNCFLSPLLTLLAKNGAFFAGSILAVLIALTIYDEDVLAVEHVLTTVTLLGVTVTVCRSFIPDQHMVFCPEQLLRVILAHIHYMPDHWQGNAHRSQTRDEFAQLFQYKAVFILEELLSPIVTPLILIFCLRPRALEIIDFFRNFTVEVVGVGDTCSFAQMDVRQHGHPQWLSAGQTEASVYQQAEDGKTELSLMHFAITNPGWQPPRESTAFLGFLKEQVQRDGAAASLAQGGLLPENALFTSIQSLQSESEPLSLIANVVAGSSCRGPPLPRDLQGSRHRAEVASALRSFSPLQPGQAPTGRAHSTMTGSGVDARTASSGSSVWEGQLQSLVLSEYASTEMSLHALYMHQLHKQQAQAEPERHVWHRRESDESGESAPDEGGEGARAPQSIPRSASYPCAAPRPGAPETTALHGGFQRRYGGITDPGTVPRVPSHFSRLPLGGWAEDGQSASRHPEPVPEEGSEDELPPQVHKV
UniProt Q9H993: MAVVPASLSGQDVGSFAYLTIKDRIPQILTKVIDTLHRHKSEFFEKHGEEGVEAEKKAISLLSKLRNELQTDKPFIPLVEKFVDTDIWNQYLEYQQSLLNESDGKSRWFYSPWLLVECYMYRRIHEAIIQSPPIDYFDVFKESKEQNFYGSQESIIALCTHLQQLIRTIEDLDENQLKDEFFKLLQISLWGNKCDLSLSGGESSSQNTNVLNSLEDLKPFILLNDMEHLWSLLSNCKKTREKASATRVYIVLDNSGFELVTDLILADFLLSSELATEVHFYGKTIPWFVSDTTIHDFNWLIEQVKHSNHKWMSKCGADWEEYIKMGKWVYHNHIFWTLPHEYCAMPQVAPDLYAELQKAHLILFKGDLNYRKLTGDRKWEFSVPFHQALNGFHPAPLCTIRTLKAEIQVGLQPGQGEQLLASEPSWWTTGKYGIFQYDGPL
UniProt O00244: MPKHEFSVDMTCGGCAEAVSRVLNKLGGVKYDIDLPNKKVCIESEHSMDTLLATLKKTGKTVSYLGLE
UniProt P56378: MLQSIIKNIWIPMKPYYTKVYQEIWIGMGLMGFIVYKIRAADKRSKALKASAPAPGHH
UniProt Q2TAZ0: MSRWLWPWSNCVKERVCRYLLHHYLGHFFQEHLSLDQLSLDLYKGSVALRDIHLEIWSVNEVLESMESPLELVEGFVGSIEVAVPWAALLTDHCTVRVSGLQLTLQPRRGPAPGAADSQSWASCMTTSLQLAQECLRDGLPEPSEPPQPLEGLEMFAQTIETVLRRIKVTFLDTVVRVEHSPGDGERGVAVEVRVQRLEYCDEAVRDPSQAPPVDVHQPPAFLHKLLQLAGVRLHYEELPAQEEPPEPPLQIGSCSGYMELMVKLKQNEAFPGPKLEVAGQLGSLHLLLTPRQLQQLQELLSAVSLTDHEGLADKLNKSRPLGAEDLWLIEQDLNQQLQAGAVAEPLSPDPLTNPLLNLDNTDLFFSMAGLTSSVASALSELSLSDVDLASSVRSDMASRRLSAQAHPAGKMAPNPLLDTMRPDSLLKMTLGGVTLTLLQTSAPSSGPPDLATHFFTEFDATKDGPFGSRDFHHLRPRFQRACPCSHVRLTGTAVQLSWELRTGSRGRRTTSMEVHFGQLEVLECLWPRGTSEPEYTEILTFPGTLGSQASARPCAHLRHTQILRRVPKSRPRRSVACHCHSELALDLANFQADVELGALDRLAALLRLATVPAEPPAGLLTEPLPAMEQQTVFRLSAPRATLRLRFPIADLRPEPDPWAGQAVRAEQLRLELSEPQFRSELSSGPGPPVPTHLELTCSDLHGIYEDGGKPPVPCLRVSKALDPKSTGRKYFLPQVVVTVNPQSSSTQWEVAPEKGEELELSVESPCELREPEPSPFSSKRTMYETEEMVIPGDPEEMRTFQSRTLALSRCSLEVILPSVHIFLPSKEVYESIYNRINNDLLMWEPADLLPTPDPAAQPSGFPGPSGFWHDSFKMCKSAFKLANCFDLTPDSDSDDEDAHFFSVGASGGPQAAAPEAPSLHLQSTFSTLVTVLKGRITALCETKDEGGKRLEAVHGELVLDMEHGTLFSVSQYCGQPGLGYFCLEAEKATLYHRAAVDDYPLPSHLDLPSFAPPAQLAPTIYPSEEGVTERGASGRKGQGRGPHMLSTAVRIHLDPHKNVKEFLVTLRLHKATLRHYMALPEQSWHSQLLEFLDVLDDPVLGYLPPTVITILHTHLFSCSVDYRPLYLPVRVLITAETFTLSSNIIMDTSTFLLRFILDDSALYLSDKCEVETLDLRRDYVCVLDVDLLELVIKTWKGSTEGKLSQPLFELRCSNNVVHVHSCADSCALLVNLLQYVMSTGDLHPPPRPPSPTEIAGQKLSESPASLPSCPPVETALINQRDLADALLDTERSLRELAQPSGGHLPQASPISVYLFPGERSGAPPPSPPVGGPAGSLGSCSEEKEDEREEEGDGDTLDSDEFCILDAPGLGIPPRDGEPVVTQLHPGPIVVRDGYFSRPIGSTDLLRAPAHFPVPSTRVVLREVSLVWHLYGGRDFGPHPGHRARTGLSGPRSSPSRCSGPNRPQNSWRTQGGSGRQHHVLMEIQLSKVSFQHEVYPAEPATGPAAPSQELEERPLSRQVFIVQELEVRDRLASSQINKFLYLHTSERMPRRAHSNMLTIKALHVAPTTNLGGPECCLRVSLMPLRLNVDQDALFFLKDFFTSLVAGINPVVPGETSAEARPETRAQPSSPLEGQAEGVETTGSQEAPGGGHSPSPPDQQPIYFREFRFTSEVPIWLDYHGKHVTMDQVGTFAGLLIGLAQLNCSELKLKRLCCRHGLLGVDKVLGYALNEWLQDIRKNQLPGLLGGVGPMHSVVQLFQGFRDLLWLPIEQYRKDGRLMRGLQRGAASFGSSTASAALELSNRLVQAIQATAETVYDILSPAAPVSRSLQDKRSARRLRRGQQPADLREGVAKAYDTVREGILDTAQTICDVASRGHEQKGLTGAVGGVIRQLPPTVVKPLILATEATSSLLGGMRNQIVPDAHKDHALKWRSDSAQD
UniProt Q9NXU5: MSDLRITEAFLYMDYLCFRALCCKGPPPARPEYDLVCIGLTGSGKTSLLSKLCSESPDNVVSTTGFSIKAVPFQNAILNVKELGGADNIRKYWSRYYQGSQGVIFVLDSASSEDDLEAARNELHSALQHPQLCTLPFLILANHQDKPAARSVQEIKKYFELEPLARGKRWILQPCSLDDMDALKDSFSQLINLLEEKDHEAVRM
UniProt P36404: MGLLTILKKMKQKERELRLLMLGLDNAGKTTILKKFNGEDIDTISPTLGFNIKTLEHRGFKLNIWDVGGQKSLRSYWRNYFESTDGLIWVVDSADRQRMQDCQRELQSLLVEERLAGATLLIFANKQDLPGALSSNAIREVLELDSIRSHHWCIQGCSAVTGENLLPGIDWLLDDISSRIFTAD
UniProt P16615: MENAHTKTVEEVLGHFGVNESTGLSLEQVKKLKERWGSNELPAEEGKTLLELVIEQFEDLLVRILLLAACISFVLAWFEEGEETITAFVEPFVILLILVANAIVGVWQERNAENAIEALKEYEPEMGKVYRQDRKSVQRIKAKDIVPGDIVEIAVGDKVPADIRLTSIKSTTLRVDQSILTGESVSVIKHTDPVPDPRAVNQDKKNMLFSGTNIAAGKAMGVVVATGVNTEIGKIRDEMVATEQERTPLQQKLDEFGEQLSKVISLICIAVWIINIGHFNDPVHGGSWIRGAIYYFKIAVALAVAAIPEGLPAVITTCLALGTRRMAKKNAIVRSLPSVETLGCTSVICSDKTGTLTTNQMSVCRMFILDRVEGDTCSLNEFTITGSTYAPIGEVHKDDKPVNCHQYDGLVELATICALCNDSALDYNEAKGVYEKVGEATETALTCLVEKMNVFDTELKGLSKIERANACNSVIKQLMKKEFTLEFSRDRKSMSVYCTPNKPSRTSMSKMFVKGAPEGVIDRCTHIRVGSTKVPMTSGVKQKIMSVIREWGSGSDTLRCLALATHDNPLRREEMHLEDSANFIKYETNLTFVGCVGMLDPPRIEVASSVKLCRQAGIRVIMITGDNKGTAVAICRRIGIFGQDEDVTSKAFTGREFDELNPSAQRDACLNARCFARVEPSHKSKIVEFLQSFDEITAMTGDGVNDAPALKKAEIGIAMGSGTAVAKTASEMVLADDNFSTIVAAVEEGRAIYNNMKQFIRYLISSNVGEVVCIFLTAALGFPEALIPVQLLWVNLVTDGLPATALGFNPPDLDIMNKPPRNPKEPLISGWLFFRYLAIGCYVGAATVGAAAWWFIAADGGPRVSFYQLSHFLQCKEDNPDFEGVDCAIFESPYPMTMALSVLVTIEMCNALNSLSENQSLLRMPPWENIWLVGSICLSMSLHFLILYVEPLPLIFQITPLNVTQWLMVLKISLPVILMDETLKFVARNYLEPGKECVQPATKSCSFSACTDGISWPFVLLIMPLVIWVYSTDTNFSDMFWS
UniProt P14415, whole entry, looked up: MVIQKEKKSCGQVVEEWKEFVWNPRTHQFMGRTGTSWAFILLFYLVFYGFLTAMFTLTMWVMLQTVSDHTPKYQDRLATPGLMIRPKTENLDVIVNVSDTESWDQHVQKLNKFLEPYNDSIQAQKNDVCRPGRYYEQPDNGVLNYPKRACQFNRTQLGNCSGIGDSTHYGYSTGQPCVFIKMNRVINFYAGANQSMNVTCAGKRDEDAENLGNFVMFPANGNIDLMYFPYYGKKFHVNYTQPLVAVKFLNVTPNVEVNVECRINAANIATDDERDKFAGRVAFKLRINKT
UniProt O43681: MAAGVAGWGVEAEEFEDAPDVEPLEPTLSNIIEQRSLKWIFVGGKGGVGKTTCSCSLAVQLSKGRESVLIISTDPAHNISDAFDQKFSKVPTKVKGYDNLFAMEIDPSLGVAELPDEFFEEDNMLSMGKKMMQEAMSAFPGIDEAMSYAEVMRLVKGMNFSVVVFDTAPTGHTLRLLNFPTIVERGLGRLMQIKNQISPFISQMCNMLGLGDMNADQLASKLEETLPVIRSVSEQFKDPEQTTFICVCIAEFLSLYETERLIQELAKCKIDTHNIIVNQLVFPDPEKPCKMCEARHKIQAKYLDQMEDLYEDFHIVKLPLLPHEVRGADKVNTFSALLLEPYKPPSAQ
UniProt Q9ULH1: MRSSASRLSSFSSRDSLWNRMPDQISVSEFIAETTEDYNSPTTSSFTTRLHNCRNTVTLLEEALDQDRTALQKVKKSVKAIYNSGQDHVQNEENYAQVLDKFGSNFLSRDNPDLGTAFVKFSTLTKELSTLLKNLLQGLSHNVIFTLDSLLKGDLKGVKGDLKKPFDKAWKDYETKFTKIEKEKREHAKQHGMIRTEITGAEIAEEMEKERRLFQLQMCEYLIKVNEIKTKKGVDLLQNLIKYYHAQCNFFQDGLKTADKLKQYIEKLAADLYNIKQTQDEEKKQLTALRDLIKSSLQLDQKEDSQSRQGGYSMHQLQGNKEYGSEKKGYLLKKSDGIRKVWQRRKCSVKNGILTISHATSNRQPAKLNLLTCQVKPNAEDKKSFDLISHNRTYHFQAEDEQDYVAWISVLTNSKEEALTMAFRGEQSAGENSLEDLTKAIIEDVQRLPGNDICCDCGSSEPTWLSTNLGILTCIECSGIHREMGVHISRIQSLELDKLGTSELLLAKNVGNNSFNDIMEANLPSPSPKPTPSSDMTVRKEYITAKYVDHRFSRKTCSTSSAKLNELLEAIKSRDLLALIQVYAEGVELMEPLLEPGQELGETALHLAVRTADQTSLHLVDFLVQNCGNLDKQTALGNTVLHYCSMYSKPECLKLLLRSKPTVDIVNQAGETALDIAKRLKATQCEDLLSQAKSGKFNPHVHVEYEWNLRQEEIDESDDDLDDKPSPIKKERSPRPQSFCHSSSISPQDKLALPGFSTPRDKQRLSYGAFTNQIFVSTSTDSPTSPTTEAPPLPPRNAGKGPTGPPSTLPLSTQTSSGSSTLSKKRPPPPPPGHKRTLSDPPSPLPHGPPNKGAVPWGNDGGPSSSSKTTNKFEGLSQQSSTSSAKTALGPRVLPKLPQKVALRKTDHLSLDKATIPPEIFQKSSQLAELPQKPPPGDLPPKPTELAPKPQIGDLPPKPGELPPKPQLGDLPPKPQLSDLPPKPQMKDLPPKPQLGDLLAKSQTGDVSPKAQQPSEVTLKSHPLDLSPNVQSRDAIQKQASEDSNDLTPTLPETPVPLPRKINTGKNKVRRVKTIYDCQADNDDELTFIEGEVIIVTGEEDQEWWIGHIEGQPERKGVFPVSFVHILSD

The targets below were run with O=C1NC(=O)C(c2cnc3ccccn23)=C1c1cn2c3c(cc(F)cc13)CN(C(=O)N1CCCCC1)CC2 (assay: log2 fold change, soluble protein after heating vs DMSO (PISA); higher = thermal stabilisation; K562 cells, 10 uM, 30 min; active = over 0.2 and 3.5 SD of the protein, either way, in both replicates (recomputed)).
Summary of the method: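 Values are thermal stability changes relative to control samples and are taken from duplicates. They are stated as log2 fold changes. Before quantification by TMTpro 16plex LC-MS/MS with equalised channel sums, K562 cells at 2×10^6 cells/mL were treated with 10 μM compound for 30 min, heated in aliquots for 3 min across 48°C-58°C, pooled, extracted in PBS with 0.5% NP-40 at 4°C, and centrifuged at 21,000xg for 90 min to give the soluble supernatant.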

log2 fold change, inactive:
ATG9A (UniProt Q7Z3C6) 0.019, ASPH (UniProt Q12797) 0.019, ATG16L1 (UniProt Q676U5) -0.043, ARPC1B (UniProt O15143) -0.061, ARPC4 isoform 3 (UniProt P59998) -0.013, ATP7B (UniProt P35670) -0.036, ARMT1 (UniProt Q9H993) 0.121, ATOX1 (UniProt O00244) -0.081, ATP5MPL (UniProt P56378) -0.016, ATG2A isoform 3 (UniProt Q2TAZ0) 0, ARL15 (UniProt Q9NXU5) -0.027, ATP5F1A (UniProt P25705) 0.005, ATG2B (UniProt Q96BY7) -0.014, ARL2 (UniProt P36404) -0.032, ATP6V1C1 (UniProt P21283) 0.025, ATP2A2 (UniProt P16615) -0.017, ATP6V1B2 (UniProt P21281) -0.058, ATP6V0A1 isoform 3 (UniProt Q93050) 0.019, ARPC5 (UniProt O15511) 0, ATP1B2 (UniProt P14415) -0.15, ASNA1 (UniProt O43681) 0.024, ATP2A3 isoform 2 (UniProt Q93084) -0.069, ASAP1 isoform 2 (UniProt Q9ULH1) -0.057
